Measured values taken from paper PMC4841768.
Results are given in words; binding and its absence hold for the method and conditions named. Binding seen in cells or lysates may run through a third protein. Some results given as binding are weak or reduced against the parent protein; the word gives no strength.

Chains of the proteins cited; added tags and fusions are not shown. Lines headed by an entry give the natural chain unless they say otherwise; changes in a name come on top.
UniProt P48432: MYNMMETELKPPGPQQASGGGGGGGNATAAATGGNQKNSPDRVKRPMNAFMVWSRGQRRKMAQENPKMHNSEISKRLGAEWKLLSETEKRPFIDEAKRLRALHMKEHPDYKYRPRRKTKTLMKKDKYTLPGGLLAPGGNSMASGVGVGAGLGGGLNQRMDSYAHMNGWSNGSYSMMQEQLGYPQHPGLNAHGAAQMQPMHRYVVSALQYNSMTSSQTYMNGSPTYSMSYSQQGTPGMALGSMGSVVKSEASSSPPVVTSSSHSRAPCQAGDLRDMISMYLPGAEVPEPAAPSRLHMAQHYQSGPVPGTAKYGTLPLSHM
UniProt Q3TKT4: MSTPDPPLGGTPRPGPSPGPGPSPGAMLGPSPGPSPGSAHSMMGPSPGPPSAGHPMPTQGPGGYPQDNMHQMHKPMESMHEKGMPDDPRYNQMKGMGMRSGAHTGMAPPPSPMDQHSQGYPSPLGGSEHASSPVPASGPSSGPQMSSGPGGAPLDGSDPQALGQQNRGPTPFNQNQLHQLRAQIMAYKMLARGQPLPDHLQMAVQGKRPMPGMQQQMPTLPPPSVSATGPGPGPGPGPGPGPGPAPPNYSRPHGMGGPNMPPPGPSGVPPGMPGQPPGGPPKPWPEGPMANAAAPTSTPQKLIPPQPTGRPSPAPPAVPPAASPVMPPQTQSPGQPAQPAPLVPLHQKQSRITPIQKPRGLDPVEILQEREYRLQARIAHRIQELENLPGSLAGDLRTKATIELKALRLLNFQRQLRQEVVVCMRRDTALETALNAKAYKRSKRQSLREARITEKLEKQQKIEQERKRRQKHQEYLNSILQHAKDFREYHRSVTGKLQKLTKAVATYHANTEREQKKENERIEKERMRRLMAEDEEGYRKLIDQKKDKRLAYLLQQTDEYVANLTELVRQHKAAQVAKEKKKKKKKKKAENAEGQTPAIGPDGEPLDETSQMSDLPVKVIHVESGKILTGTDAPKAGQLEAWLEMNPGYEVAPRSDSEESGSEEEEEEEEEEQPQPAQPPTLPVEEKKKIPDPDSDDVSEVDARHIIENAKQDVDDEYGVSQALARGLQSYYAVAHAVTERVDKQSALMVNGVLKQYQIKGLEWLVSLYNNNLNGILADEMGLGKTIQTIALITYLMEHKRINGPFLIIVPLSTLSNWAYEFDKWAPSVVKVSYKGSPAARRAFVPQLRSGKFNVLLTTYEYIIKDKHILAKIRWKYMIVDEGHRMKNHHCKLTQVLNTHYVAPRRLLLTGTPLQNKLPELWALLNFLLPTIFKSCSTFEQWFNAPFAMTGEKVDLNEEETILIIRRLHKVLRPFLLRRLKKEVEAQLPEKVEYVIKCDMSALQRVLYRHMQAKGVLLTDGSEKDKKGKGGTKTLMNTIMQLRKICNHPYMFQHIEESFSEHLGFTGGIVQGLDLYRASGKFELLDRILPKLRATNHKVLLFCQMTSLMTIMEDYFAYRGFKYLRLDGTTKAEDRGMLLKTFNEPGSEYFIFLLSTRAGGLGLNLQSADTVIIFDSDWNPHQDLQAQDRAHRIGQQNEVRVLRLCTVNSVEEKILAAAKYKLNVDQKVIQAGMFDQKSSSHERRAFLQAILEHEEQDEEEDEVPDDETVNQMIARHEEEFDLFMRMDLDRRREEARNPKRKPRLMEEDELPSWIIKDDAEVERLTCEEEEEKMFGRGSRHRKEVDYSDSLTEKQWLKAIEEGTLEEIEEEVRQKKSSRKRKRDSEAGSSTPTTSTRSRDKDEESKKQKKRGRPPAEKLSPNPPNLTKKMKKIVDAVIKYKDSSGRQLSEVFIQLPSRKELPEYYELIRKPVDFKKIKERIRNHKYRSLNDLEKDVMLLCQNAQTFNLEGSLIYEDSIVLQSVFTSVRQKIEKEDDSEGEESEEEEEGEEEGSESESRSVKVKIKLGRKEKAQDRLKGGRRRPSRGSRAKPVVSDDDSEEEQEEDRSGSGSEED
UniProt Q8VHR5: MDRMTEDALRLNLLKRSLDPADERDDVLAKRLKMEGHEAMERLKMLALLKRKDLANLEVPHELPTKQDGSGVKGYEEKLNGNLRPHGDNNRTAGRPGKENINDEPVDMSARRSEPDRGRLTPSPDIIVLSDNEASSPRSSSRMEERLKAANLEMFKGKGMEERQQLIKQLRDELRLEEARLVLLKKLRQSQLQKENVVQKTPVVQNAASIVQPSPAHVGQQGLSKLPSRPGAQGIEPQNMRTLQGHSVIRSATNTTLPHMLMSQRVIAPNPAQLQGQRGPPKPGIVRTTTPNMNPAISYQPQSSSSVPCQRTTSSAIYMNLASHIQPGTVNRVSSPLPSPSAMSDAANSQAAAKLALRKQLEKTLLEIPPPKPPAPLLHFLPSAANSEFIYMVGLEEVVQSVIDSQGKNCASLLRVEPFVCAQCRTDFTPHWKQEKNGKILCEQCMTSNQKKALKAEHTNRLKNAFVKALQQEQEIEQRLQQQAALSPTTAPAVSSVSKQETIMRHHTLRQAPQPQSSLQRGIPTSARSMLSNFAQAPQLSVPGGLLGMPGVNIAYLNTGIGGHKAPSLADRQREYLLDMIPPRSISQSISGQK
UniProt P11103: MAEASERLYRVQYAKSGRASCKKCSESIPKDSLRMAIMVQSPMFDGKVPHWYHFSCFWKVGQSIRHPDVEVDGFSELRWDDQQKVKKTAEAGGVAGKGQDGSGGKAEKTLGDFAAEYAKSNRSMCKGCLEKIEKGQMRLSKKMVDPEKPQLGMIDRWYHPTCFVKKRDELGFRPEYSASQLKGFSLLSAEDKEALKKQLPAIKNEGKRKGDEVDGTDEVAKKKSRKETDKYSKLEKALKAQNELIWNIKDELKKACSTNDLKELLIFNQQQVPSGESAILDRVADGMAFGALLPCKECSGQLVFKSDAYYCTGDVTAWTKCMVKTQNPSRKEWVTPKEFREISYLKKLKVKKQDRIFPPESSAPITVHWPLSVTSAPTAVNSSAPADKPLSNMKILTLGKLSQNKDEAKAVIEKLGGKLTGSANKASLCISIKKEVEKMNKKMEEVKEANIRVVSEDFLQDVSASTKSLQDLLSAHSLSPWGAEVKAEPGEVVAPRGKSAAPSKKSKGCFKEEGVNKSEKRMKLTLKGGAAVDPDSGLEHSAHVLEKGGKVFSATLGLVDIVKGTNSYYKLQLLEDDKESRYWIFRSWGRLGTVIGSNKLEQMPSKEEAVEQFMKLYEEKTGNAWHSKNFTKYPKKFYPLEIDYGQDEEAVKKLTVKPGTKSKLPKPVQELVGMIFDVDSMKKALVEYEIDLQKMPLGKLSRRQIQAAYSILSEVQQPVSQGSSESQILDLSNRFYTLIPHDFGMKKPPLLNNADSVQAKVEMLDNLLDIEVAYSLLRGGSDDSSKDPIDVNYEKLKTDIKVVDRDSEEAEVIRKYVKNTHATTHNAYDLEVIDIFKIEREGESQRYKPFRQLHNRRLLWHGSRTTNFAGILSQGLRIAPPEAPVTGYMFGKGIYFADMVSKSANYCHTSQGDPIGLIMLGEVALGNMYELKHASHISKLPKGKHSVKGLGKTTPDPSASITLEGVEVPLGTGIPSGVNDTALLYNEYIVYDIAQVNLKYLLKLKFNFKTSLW

Biological target: 3xFLAG-tagged O-GlcNAc-deficient SOX2 S248A (3xF-SOX2^S248A) of fS248A-Tg mESCs (mouse) (UniProt P48432)
Assay: co-IP; anti-FLAG IP from nuclear extracts of fSOX2-Tg and fS248A-Tg mESCs, eluted with 2X SDS-PAGE loading buffer, Western blot for SOX2, PARP1, GATAD2B, SMARCA4

SMARCA4 (mouse, endogenous in mESCs) (from UniProt Q3TKT4 1-1613)
binding: binds

GATAD2B (mouse, endogenous in mESCs) (from UniProt Q8VHR5 1-594)
binding: binds

PARP1 (mouse, endogenous in mESCs) (from UniProt P11103 1-1013)
binding: binds
